{"sequences": {"note": "Sequences of proteins named here, by UniProt entry; tags and fusion partners are left off. Residues count along the entry.", "UniProt P36544, residues 23-502": "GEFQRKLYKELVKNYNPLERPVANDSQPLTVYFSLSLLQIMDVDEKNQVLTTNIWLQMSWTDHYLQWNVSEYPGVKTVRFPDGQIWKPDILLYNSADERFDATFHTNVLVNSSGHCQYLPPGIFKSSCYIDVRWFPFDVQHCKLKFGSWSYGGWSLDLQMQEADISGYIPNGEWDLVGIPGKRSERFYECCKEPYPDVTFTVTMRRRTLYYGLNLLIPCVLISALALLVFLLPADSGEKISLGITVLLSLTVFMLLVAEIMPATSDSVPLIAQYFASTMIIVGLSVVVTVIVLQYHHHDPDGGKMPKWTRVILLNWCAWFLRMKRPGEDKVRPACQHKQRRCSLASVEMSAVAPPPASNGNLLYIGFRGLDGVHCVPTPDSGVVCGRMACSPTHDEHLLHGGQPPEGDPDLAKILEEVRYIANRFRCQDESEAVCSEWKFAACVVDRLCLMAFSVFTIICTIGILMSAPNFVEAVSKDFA", "UniProt P60615, residues 22-95": "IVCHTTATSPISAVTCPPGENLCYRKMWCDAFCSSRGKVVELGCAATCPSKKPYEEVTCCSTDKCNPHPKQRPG"}, "source": "paper PMC6283580", "target": "human α7 acetylcholine receptor (α7 AChR) (human) (UniProt P36544)", "assay": "radioimmunoprecipitation assay (RIA); only the binder purified", "note": "No constants are given. Whether binding was seen depends on the method and setting. Some results given as binding are weak or reduced against the parent protein; the word gives no strength."}
{"substance": "iodine 125-labelled α-bungarotoxin (from UniProt P60615 22-95) (ligand)", "values": [{"measurement": "binding", "result": "binds"}]}
